Substitutions are numbered along the chain they refer to. These are yes or no findings as the source states them, for the method shown. Binding can be weak; no strength is given.
B1: ABIS-45RC (antibody, mouse IgG1, kappa, V domains shown)
VH: QVQLQQSGAELVRPGTSVKMSCKAAGYTFTNYYIGWVKQRPGHGLEWIGDIFPGGDYANSNEKFKGKATLTADTSSSTAYMQLSSLTSEDSAIYYCVRRNFDYWGQGTTLTVSS
VL: QIVLTQSPTIMSASPGEKVTITCSASSSVSYMHWFQQKTGTSPRLWIYNTSNLPSGVPARFSGSGSGTSYSLTISRMEAEDAATYYCQQRSSYPLTFGAGTKLELKR
notes: the variable domains are the same; also called murine ABIS-45RC; murine anti-hCD45RC antibody of the invention
B2: Anti-45RC Variant A (antibody, human IgG1, kappa, V domains shown)
VH: QVQLVQSGAEVKKPGASVKVSCKASGYTFTNYYIGWVRQAPGQGLEWIGDIFPGGDYANSNEKFKGRVTLTADTSISTAYMELSRLRSDDTVVYYCVRRNFDYWGQGTLVTVSS
VL: DIQLTQSPSFLSASVGDRVTITCSASSSVSYMHWFQQKPGKAPKLWIYNTSNLPSGVPSRFSGSGSGTEYTLTISSLQPEDFATYYCQQRSSYPLTFGGGTKVEIKR
B3: Anti-45RC Variant A1 (antibody, human IgG1, kappa, V domains shown)
VH: B2 VH with A58T, S60Y, N61A, K65Q
VL: B2 VL with S24R, F35Y
B4: Anti-45RC Variant A3 (antibody, human IgG1, kappa, V domains shown)
VH: B2 VH with D56G, A58T, S60Y, N61A, K65Q
VL: B2 VL with S24R, F35Y

Each binder was assayed against macaque CD45RC (cynomolgus macaque) (assay: flow cytometry on cynomolgus macaque PBMC, 10 µg/ml).

binding, binds:
B1
B2
B3
B4

Each binder was assayed against macaque CD45RC (cynomolgus macaque) (assay: flow cytometry on macaque blood cells (figure legend)).

binding, binds:
B1
B2
B3
B4

— US20250122300A1 (INSERM INSTITUT NATIONAL DE LA SANT ET DE LA RECHERCHE M …, published 2025)
